Source: PMC6053357
Results are given in words; binding and its absence hold for the method and conditions named. Binding seen in cells or lysates may run through a third protein. Some binding calls cover weakened binding; strength is not graded here.

The chains behind the UniProt entries cited, without tags or fusion partners. Residues count along the entry.
UniProt O75581, residues 20-1613: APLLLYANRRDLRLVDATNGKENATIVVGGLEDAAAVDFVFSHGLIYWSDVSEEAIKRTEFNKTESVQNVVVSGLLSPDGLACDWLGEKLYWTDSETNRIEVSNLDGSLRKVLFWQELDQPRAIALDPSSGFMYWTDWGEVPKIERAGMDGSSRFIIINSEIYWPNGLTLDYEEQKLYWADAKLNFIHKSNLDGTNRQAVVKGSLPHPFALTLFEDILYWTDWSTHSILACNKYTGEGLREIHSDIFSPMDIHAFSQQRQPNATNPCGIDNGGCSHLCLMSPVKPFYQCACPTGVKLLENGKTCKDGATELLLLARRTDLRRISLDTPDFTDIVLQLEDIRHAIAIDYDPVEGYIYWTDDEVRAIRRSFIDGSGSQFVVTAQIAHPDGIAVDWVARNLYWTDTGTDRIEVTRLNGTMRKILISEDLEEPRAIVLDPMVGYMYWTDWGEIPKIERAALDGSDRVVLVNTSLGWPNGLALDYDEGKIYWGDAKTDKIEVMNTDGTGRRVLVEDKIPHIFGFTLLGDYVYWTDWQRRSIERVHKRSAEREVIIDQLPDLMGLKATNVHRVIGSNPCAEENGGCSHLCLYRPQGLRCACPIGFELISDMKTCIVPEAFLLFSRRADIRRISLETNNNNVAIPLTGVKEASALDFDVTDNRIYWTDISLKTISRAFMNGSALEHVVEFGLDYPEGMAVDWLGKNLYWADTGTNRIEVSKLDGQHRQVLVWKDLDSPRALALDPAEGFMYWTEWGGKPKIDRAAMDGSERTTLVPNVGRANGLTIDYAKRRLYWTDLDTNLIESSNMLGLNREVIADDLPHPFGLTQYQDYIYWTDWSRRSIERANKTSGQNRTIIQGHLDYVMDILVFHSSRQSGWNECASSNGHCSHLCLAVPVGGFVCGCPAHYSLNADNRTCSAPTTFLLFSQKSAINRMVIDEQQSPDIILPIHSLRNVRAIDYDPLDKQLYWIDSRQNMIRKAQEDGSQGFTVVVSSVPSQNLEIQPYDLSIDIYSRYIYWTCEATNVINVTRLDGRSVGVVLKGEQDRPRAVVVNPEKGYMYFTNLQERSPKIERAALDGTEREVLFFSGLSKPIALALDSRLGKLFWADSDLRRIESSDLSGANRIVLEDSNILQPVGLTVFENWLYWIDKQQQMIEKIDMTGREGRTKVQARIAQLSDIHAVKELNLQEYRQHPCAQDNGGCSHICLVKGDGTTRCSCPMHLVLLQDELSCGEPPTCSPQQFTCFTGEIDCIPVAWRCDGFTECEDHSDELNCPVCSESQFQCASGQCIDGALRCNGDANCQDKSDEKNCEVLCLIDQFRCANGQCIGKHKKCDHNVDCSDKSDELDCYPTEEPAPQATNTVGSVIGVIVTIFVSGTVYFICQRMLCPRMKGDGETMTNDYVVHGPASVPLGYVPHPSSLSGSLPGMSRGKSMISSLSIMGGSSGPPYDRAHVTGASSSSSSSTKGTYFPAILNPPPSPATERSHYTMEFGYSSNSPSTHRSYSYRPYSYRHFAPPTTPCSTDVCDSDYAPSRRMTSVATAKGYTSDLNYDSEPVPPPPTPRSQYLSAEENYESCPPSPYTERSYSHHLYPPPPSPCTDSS
UniProt P58335, residues 34-489: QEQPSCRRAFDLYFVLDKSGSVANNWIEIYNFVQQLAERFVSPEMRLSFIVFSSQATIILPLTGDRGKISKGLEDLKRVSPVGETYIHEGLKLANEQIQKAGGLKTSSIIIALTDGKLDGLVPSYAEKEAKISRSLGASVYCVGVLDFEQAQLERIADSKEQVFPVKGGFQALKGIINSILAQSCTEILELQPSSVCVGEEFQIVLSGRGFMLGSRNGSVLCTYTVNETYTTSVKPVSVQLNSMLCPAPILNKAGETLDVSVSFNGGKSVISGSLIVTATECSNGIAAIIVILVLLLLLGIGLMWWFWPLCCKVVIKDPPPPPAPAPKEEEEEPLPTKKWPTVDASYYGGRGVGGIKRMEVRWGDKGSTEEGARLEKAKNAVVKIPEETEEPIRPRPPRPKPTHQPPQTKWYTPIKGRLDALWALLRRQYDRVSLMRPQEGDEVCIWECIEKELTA

Biological target: low-density lipoprotein receptor 6 (human (endogenous in GC cells)) (UniProt O75581)
Assay: co-IP; Pierce Co-IP kit; 10 μg anti-CMG2 or anti-LRP6 antibody (and matched IgG) immobilised on AminoLink Plus coupling resin, incubated with 250 μg GC cell lysate at 4 °C overnight; western blot

- binding: binds
Substance: capillary morphogenesis gene 2 (from UniProt P58335 34-489) (receptor)
